No constants are given. Whether binding was seen depends on the method and setting. Binding seen in cells or lysates may run through a third protein. Some entries that bind do so weakly or less than the wild type. For part of these data: Sequences can lack the tags named with a protein.

Sequences of proteins named here, by UniProt entry; tags and fusion partners are left off.
UniProt Q9D4F8: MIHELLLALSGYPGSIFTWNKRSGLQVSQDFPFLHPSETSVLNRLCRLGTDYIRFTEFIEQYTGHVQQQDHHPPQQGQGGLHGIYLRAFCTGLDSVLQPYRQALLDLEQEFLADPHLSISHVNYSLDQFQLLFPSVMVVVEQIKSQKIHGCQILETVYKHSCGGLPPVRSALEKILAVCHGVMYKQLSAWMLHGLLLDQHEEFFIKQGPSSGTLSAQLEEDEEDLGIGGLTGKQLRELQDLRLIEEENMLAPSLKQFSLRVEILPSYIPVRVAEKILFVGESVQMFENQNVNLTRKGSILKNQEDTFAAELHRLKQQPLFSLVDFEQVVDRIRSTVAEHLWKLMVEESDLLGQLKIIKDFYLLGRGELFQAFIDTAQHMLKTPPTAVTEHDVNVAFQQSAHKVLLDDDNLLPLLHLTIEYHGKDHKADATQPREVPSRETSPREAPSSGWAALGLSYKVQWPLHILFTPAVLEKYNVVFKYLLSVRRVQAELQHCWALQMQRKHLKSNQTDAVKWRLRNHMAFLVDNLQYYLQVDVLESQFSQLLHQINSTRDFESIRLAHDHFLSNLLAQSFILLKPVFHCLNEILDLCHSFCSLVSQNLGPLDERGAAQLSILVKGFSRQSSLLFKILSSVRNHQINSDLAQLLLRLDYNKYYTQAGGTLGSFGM
UniProt Q8BKN5: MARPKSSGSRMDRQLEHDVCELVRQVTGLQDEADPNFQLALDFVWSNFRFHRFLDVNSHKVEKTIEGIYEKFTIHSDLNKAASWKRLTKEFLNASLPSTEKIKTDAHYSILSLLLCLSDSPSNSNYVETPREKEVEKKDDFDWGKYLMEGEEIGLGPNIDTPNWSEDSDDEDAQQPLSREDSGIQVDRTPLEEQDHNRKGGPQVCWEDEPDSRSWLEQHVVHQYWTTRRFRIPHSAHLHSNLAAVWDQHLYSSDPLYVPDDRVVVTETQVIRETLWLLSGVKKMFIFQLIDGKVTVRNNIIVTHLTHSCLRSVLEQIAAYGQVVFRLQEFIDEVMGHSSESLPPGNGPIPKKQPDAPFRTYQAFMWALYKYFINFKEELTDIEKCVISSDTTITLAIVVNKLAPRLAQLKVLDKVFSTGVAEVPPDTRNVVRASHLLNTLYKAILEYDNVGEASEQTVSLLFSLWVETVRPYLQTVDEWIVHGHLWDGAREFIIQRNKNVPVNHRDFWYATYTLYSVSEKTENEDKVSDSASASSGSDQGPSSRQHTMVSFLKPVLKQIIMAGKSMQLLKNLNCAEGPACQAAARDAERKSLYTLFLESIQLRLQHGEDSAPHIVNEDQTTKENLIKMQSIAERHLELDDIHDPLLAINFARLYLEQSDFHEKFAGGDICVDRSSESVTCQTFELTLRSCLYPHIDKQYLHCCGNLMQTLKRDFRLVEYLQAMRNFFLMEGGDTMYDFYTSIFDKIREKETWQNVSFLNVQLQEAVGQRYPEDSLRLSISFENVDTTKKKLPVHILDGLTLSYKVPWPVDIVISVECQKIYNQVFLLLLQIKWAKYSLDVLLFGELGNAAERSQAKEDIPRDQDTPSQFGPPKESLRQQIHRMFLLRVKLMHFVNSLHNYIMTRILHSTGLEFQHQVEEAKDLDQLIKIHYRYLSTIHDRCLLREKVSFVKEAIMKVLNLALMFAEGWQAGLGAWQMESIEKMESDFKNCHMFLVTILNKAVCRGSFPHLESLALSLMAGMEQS
UniProt Q921G8: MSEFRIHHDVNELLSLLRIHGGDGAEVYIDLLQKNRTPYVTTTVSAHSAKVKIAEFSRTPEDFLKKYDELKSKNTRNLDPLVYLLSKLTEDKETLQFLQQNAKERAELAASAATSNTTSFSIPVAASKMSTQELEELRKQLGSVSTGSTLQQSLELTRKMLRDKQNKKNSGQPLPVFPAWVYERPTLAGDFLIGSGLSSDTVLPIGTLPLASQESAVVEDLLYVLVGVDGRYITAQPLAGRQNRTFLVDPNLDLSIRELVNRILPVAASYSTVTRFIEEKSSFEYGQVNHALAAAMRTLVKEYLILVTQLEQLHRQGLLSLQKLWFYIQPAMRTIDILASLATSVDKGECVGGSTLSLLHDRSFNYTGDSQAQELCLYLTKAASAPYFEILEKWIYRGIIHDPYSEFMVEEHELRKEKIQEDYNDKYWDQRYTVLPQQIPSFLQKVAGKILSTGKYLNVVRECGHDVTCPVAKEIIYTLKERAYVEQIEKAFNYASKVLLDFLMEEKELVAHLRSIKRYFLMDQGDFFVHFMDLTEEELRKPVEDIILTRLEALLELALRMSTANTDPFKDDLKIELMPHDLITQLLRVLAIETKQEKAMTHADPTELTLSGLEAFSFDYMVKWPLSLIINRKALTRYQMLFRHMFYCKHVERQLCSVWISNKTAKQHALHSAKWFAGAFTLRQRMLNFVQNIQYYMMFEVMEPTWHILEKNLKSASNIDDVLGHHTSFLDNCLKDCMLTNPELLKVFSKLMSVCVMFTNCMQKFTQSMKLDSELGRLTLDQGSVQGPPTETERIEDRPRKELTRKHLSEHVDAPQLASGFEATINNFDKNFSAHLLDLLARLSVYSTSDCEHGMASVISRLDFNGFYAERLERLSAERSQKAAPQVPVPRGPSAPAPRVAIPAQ

In assay [1] the target is T1, MYC-ATG7 (from pMyc-ATG7) (human) (UniProt O95352).
T1 sequence: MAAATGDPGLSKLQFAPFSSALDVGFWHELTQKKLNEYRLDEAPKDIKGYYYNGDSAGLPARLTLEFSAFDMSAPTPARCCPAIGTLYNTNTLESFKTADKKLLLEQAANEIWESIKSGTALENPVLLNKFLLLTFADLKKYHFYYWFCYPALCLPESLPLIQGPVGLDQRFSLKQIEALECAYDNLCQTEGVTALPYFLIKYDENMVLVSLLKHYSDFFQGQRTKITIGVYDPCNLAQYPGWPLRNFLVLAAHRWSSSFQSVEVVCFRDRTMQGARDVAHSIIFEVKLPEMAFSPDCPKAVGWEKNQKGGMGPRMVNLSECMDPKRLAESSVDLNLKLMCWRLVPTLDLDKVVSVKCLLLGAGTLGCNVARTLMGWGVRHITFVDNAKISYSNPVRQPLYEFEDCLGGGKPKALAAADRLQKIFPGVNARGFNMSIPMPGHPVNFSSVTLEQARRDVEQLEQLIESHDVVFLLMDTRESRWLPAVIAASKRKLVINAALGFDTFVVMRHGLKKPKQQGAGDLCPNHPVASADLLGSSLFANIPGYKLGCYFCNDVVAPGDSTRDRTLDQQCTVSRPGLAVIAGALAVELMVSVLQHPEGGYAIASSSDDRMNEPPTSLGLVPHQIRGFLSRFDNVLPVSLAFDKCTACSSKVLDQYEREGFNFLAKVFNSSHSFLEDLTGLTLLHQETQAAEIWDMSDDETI
The experiment in a line: co-IP; competition: pMyc-ATG7 co-transfected with 1 μg p3xFlag-ATG3 or p3xFlag-TUBGCP4 and increasing amounts (0, 0.3, 0.6, 1.2 μg) of the other; anti-MYC precipitation, anti-FLAG blot.

Assay [2] has as its target GCP4 (gamma-tubulin complex protein 4, encoded by Tubgcp4) (mouse (endogenous in retina)) (UniProt Q9D4F8). Briefly: co-IP; endogenous proteins in mouse retina lysates (wild-type and Tubgcp4+/-); HEPES buffer with 150 mM NaCl, 0.5% NP-40; anti-GCP4 or anti-ATG7 with Protein G agarose overnight at 4 °C; control IgG.
The target of assay [3] is T1, MYC-ATG7 (from pMyc-ATG7) (human). Briefly: co-IP; 293T cells co-transfected with Myc- and 3xFlag-tagged constructs, 48 h; HEPES buffer with 150 mM NaCl, 0.5% NP-40; anti-MYC or anti-FLAG with Protein G agarose overnight at 4 °C.
Assay [4] deals with GCP4 (gamma-tubulin complex protein 4, encoded by Tubgcp4) (mouse (endogenous in retina)) (UniProt Q9D4F8). Briefly: co-sedimentation; retina extracts of wild-type and Tubgcp4+/- mice on a 5-40% continuous sucrose gradient in HEPES buffer, 4 h at 314,000 x g, 4 °C; 14 fractions analysed by western blotting. A general note: A western blot detects proteins with antibodies after separation by electrophoresis.

Assay [5] has as its target T2, GST-ATG7 (human) (UniProt O95352).
T2 sequence: T1 sequence
The experiment in a line: pull-down; GST fusions from E. coli supernatants (10 μg) on glutathione-agarose beads, washed with HEPES buffer, incubated with 10 μg supernatant of His-GCP4 overnight at 4 °C; blot with anti-GCP4; only the target purified.

The target of assay [6] is T3, ATG7 (mouse (endogenous in retina)) (UniProt Q9D906).
T3 sequence: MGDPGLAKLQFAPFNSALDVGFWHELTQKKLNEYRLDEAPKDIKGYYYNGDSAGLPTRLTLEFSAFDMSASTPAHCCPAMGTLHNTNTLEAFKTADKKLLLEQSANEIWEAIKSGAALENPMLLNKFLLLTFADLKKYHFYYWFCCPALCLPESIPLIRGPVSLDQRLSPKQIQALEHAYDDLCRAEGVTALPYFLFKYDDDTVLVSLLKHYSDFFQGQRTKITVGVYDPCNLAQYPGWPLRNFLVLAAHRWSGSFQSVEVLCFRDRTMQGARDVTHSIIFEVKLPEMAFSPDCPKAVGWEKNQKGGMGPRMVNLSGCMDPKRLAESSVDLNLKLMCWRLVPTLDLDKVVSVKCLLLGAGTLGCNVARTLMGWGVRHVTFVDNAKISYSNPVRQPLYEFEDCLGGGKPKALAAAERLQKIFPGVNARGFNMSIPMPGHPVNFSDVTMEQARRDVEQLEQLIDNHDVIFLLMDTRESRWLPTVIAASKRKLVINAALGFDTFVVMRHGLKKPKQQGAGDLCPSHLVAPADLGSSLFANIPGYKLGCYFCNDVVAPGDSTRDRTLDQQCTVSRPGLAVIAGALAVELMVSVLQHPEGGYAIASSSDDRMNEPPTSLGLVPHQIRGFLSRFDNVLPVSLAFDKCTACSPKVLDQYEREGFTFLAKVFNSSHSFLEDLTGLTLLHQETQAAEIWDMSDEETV
Briefly: co-IP; endogenous proteins in mouse retina lysates (wild-type and Tubgcp4+/-); HEPES buffer with 150 mM NaCl, 0.5% NP-40; anti-GCP4 or anti-ATG7 with Protein G agarose overnight at 4 °C; control IgG.

Assay [7] concerns the target FLAG-GCP4 (from p3xFlag-TUBGCP4 / FLAG-Tubgcp4) (mouse) (UniProt Q9D4F8). Briefly: co-IP; 293T cells co-transfected with Myc- and 3xFlag-tagged constructs, 48 h; HEPES buffer with 150 mM NaCl, 0.5% NP-40; anti-MYC or anti-FLAG with Protein G agarose overnight at 4 °C.

As for “FLAG-ATG3 (from p3xFlag-ATG3) (from UniProt Q9NT62-1 1-314)”, in assay [1], the binding result is “binds”. As for GCP5 (from UniProt Q8BKN5 1-1024), in assay [2], the binding result was “binds”. With “FLAG-GCP4 (from p3xFlag-TUBGCP4 / FLAG-Tubgcp4) (from UniProt Q9D4F8 1-667)”, the binding result in assay [3] and in assay [1] was “binds” throughout. Take GCP2 (from UniProt Q921G8 1-905): the binding entry in assay [2] and in assay [4] was “binds” throughout. As for His-GCP4 (from UniProt Q9D4F8 1-667), the binding result in assay [5] is on record as “binds”. Take “GCP4 (gamma-tubulin complex protein 4, encoded by Tubgcp4) (from UniProt Q9D4F8 1-667)”: the binding entry in assay [6] was “binds”.

B1: MYC-ATG7 (from pMyc-ATG7) (protein, UniProt O95352-1 1-703)
chain: T1 sequence
Regarding B1, the binding result in assay [7] was “binds”.

Source of the values: article PMC7206048.
